# In PubChem BioAssay AID248 (DTP/NCI, 2004):
# The list is a part of this screen's results and no random one: it is rich in T/C values a quarter to a half above the control, in often repeated tests (any T/C) and in doses without a T/C. Further doses and runs are listed elsewhere. T/C is the treated group as % of the vehicle group. Some entries give survivors of the animals treated and no T/C: the source files T/C as zero there, which appears to mark a toxic dose or a test without result, not a measured value. Some survivor counts are full or nearly so, which does not show that the dose was tolerated: the source hardly ever lists a survival T/C far under the control, and the zero likely stands for such cases as well. Counts of survivors are from the toxicity check (mostly the fifth day) where no day follows; animals may have died later. Schedules are NCI's codes, taken here to give the interval after Q, in days (D) or hours (H), and the number of doses after X. Some schedules carry Z or #; the key to these is not given. Some molecules as drawn cover several salts, stereoisomers or complexes of the source; a dose is that of the sample tested. Some entries were tested several times; their values stand side by side, smallest first. For survival time, this PubChem deposit counts one and a half times the control or more as active, and values a quarter to a half above the control carry no call in these data; other NCI protocols may use other cut-offs. Some T/C values carry the count of animals alive at the toxicity check (mostly the fifth day); where none is given, no animal had died by that day.
# Test system: L1210 leukemia ip in BDF1 mice, survival T/C
# Assay: NCI In Vivo Anticancer Drug Screen. Data for tumor model L1210 Leukemia (intraperitoneal) in B6D2F1 (BDF1) mice
# Conditions: T/C endpoint: mean survival time, higher T/C = longer survival
# [1] = dose: 80.0 mg/kg/injection, schedule: Q04DX002 (ip), vehicle: Klucel (hydroxypropylcellulose) (HPC)
# [2] = dose: 96.0 mg/kg/injection, schedule: Q03DX Z (ip), vehicle: saline
smiles,measurement,setting,value
O=C(Nc1ccc(C2=NCCN2)cc1)c1ccc(C(=O)Nc2ccc(C3=NCCN3)cc2)c(Cl)c1,survivor count,"dose: 50.0 mg/kg/injection, schedule: Q01DX009 (ip), vehicle: saline with Tween-80",4 of 6
same,survivor count,"dose: 50.0 mg/kg/injection, schedule: Q01DX010 (ip), vehicle: carboxymethylcellulose (CMC)",8 of 10
same,survivor count,"dose: 50.0 mg/kg/injection, schedule: Q01DX010 (ip), vehicle: other",3 of 10
same,T/C,"dose: 50.0 mg/kg/injection, schedule: Q01DX010 (sc), vehicle: olive oil, sesame oil, peanut oil",133 % of control
same,T/C,"dose: 54.0 mg/kg/injection, schedule: Q## X032 (ip), vehicle: carboxymethylcellulose (CMC)",140 % of control [9 of 10 alive]
same,T/C,"dose: 56.0 mg/kg/injection, schedule: Q01DX009 (ip), vehicle: Klucel (hydroxypropylcellulose) (HPC)",134 % of control
same,T/C,"dose: 59.0 mg/kg/injection, schedule: Q02DX010 (ip), vehicle: carboxymethylcellulose (CMC)",144 % of control
same,T/C,"dose: 63.0 mg/kg/injection, schedule: Q01DX001 (ip), vehicle: carboxymethylcellulose (CMC)",130 and 137 % of control [8 of 10 alive]
same,T/C,"dose: 63.0 mg/kg/injection, schedule: Q01DX001 (ip), vehicle: other",129 [9 of 10 alive] and 139 % of control
same,survivor count,"dose: 64.0 mg/kg/injection, schedule: Q01DX010 (ip), vehicle: other",0 of 8
same,survivor count,"dose: 64.0 mg/kg/injection, schedule: Q01DX010 (ip), vehicle: saline",4 of 6 and 5 of 6
same,survivor count,"dose: 64.0 mg/kg/injection, schedule: Q01DX010 (ip), vehicle: water",0 of 6
same,survivor count,"dose: 64.0 mg/kg/injection, schedule: Q01DX Z (ip), vehicle: saline",0 of 6 and 6 of 6
same,T/C,"dose: 64.0 mg/kg/injection, schedule: Q01DX Z (sc), vehicle: steroid suspending solution",126 % of control
same,survivor count,"dose: 65.0 mg/kg/injection, schedule: Q01DX Z (sc), vehicle: carboxymethylcellulose (CMC)",6 of 6
same,T/C,"dose: 67.0 mg/kg/injection, schedule: Q01DX001 (ip), vehicle: carboxymethylcellulose (CMC)",127 and 139 % of control
same,T/C,"dose: 67.5 mg/kg/injection, schedule: Q02DX010 (ip), vehicle: carboxymethylcellulose (CMC)","98, 106, 109, 137, 142, 145, 153 % of control"
same,T/C,"dose: 74.0 mg/kg/injection, schedule: Q01DX001 (ip), vehicle: carboxymethylcellulose (CMC)",131 % of control
same,survivor count,"dose: 75.0 mg/kg/injection, schedule: Q01DX015 (ip), vehicle: carboxymethylcellulose (CMC)",0 of 10 and 1 of 10
same,T/C,[1],"146 [5 of 6 alive], 147, 154 % of control"
same,survivor count,[1],3 of 6
same,survivor count,"dose: 81.0 mg/kg/injection, schedule: Q02DX010 (ip), vehicle: other",6 of 6
same,survivor count,"dose: 88.0 mg/kg/injection, schedule: Q02DX008 (ip), vehicle: carboxymethylcellulose (CMC)",1 of 10 and 2 of 10
same,survivor count,"dose: 96.0 mg/kg/injection, schedule: Q01DX001 (ip), vehicle: carboxymethylcellulose (CMC)",5 of 10
same,survivor count,"dose: 96.0 mg/kg/injection, schedule: Q01DX001 (ip), vehicle: other",3 of 10
same,T/C,[2],145 % of control
same,survivor count,[2],2 of 6
same,survivor count,"dose: 100.0 mg/kg/injection, schedule: Q01DX001 (im), vehicle: steroid suspending solution",2 of 6
same,survivor count,"dose: 100.0 mg/kg/injection, schedule: Q01DX001 (ip), vehicle: carboxymethylcellulose (CMC)",0 of 10 and 6 of 10
same,survivor count,"dose: 100.0 mg/kg/injection, schedule: Q## X004 (ip), vehicle: carboxymethylcellulose (CMC)",1 of 10 and 3 of 10
same,T/C,"dose: 101.25 mg/kg/injection, schedule: Q02DX010 (ip), vehicle: carboxymethylcellulose (CMC)","66, 72, 73, 76, 93, 106 % of control [4 of 5 alive]"
same,survivor count,"dose: 110.0 mg/kg/injection, schedule: Q01DX001 (ip), vehicle: carboxymethylcellulose (CMC)",0 of 10 and 4 of 10
same,survivor count,"dose: 125.0 mg/kg/injection, schedule: Q01DX Z (sc), vehicle: steroid suspending solution",7 of 7
same,survivor count,"dose: 128.0 mg/kg/injection, schedule: Q01DX010 (ip), vehicle: saline",0 of 6
same,survivor count,"dose: 128.0 mg/kg/injection, schedule: Q01DX Z (ip), vehicle: saline",0 of 6
same,survivor count,"dose: 132.0 mg/kg/injection, schedule: Q02DX008 (ip), vehicle: carboxymethylcellulose (CMC)",0 of 10
same,survivor count,"dose: 135.0 mg/kg/injection, schedule: Q02DX010 (ip), vehicle: carboxymethylcellulose (CMC)",10 of 10
same,survivor count,"dose: 144.0 mg/kg/injection, schedule: Q01DX001 (ip), vehicle: carboxymethylcellulose (CMC)",1 of 10 and 2 of 10
same,survivor count,"dose: 144.0 mg/kg/injection, schedule: Q01DX001 (ip), vehicle: other",0 of 10 and 2 of 10
same,survivor count,"dose: 150.0 mg/kg/injection, schedule: Q01DX001 (ip), vehicle: carboxymethylcellulose (CMC)",0 of 10 and 5 of 10
same,survivor count,"dose: 160.0 mg/kg/injection, schedule: Q01DX001 (ip), vehicle: saline",0 of 6
same,survivor count,"dose: 180.0 mg/kg/injection, schedule: Q## X032 (ip), vehicle: carboxymethylcellulose (CMC)",4 of 10 and 5 of 10
same,survivor count,"dose: 192.0 mg/kg/injection, schedule: Q03DX Z (ip), vehicle: saline",0 of 6
same,survivor count,"dose: 200.0 mg/kg/injection, schedule: Q01DX001 (im), vehicle: steroid suspending solution",0 of 6
same,survivor count,"dose: 216.0 mg/kg/injection, schedule: Q01DX001 (ip), vehicle: carboxymethylcellulose (CMC)",0 of 10
same,survivor count,"dose: 216.0 mg/kg/injection, schedule: Q01DX001 (ip), vehicle: other",0 of 10
same,survivor count,"dose: 224.0 mg/kg/injection, schedule: Q07DX Z (ip), vehicle: saline",0 of 6 and 1 of 6
same,survivor count,"dose: 225.0 mg/kg/injection, schedule: Q01DX001 (ip), vehicle: carboxymethylcellulose (CMC)",0 of 10
same,T/C,"dose: 240.0 mg/kg/injection, schedule: Q01DX Z (oral), vehicle: methylcellulose (MC)",130 % of control
same,survivor count,"dose: 250.0 mg/kg/injection, schedule: Q01DX Z (sc), vehicle: steroid suspending solution",3 of 7
same,survivor count,"dose: 448.0 mg/kg/injection, schedule: Q07DX Z (ip), vehicle: saline",0 of 6
same,T/C,"dose: 500.0 mg/kg/injection, schedule: Q01DX010 (oral), vehicle: other",127 % of control
